Measured values reported in doi:10.1101/2024.02.12.579695.
Construct, isoform or probe ends are uncertain for at least one entry. Negatives hold for the conditions tested. At least one verdict rests on a figure or table, not on a statement of the authors. For some assays here: The comparison behind a weaker result is the experiment's own reference, which may not be listed here.

Columns and labels:
[1] = test system: DR2539 (form not stated) (Deinococcus radiodurans); assay: EMSA; conditions: 0.5 mM Mn2+
[2] = test system: DR2539 (form not stated) (Deinococcus radiodurans); assay: CD titration
[3] = mutation of all major-groove nucleotides: complete loss
[4] = loss of Tyr59 contact not essential

Sequence: AGGGGAGTCGCGCCTCCCCTA (double strand) [dr1709p_T2345G]
- binding result [1, 3]: no binding

Sequence: ATTCTGGTCGCGCCCAGAATA (double strand) [dr1709p_T4C/A6G]
- binding result ([1]; dramatic decrease (T4 and reverse T16 both mutated)): binds more weakly

Sequence: ACTTTAGTCGCGCCTAAAGTA (double strand) [dr1709p_T2C]
- binding result [1, 4]: binds

Sequence: ATTTTAGTCGCGCCTAAAATA (double strand) [dr1709p_wt]
- binding result [1]: binds
- binding result ([2]; 2 mM EDTA): no binding
- binding result ([2]; no EDTA): binds

Sequence: ATGGGAGTCGCGCCTCCCATA (double strand) [dr1709p_T345G]
- binding result [1, 3]: no binding

Sequence: AGTTTAGTCGCGCCTAAACTA (double strand) [dr1709p_T2G]
- binding result [1, 4]: binds
